Measurements published in article PMC7339498.
No constants are given. Whether binding was seen depends on the method and setting. Binding seen in cells or lysates may run through a third protein. Some entries that bind do so weakly or less than the wild type.

Amino acid sequences for entries named in this document (tags omitted).
UniProt P46937: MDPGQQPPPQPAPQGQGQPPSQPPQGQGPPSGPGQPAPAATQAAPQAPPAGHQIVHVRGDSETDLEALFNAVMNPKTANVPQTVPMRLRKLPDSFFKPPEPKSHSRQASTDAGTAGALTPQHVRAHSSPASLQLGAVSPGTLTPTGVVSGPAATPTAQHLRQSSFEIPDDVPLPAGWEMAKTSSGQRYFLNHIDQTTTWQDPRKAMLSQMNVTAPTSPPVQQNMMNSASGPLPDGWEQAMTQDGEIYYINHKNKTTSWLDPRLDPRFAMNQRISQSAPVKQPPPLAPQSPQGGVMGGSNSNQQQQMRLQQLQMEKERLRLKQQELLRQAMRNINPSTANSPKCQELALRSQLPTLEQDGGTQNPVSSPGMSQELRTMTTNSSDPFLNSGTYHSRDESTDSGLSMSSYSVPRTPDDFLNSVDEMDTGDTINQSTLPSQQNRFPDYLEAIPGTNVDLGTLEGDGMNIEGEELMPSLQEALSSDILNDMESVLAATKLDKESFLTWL

Columns and labels:
[1] = target: phospho-YAP (S127) (human (endogenous in BT549)) (UniProt P46937); experiment: co-IP; endogenous proteins; BT549 cells harvested with RIPA lysis buffer; antibody as indicated in the figure
[2] = target: Yes-associated protein (YAP) (human (endogenous in MDAMB231 or HEK293T)) (UniProt P46937); experiment: co-IP; endogenous proteins; cells (MDAMB231 in the text, HEK293T in the legend) harvested with RIPA lysis buffer; antibody as indicated in the figure

B1: Ring finger protein 181 (RNF181) (protein, UniProt Q9P0P0 1-153)
chain: MASYFDEHDCEPSDPEQETRTNMLLELARSLFNRMDFEDLGLVVDWDHHLPPPAAKTVVENLPRTVIRGSQAELKCPVCLLEFEEEETAIEMPCHHLFHSSCILPWLSKTNSCPLCRYELPTDDDTYEEHRRDKARKQQQQHRLENLHGAMYT
[1]
  binding: binds
[2]
  binding: binds
